Cell number after 72 h of treatment

Source: doi:10.1371/journal.pone.0140310, primary screening data, rounded.

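Human melanoma cell lines in 1,536-well plates were treated with a pair of drugs for 72 h, then fixed, stained and imaged. The read-out is cell count (nuclei) in % of the DMSO control; lower values mean stronger growth inhibition or killing. Concentrations were fixed for each drug; these are the higher of two levels. No replicate spread is given; individual values may be noisy.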
This is part of the screen, not chosen by result.

Every entry is a combination with dasatinib at 20 nM: Cc1nc(Nc2ncc(C(=O)Nc3c(C)cccc3Cl)s2)cc(N2CCN(CCO)CC2)n1

| Partner | WM451Lu | WM3619 | C32 | COLO 792 | COLO 829 | COLO 800 |
|---|---|---|---|---|---|---|
| Cc1cc(Nc2cc(N3CCN(C)CC3)nc(/C=C/c3ccccc3)n2)n[nH]1 at 200 nM | 87.3 | 96.8 | 62.0 | 60.5 | 52.1 | 31.8 |
| O=C(O)c1ccc(-c2c[nH]c3ncc(-c4ccccc4)cc23)cc1C1CCCC1 at 800 nM | 79.9 | 76.3 | 69.1 | 36.4 | 68.8 | 50.0 |
| CCN(CC)CCCCNc1ncc2cc(-c3cc(OC)cc(OC)c3)c(NC(=O)NC(C)(C)C)nc2n1 at 500 nM | 54.1 | 74.8 | 68.6 | 45.0 | 68.3 | 57.9 |
| NC1(c2ccc(-c3nc4ccn5c(=O)[nH]nc5c4cc3-c3ccccc3)cc2)CCC1 at 2000 nM | 84.1 | 72.6 | 52.7 | 43.5 | 61.3 | 82.3 |
| O=C(Oc1ccc([N+](=O)[O-])cc1)N1CCC(C(O)(c2ccc3c(c2)OCO3)c2ccc3c(c2)OCO3)CC1 at 5000 nM | 68.6 | 64.7 | 76.5 | 49.2 | 47.1 | 91.2 |
| COc1cc2ncnc(Nc3ccc(Oc4ccccc4)cc3)c2cc1OC at 10000 nM | 64.2 | 45.6 | 79.3 | 44.4 | 95.9 | 75.8 |
| CN(C)S(=O)(=O)c1ccc2c(c1)/C(=C/c1cc3c([nH]1)CCCC3)C(=O)N2 at 2000 nM | 57.7 | 50.9 | 73.3 | 24.1 | 27.5 | 65.3 |
| O=C(CCCCCCC(=O)Nc1ccccc1)NO at 400 nM | 43.0 | 55.1 | 61.7 | 28.5 | 53.8 | 50.2 |
| CO[C@H]1C[C@@H]2CC[C@@H](C)[C@@](O)(O2)C(=O)C(=O)N2CCCC[C@H]2C(=O)O[C@H]([C@H](C)C[C@@H]2CC[C@@H](OCCO)[C@H](OC)C2)CC(=O)[C@H](C)/C=C(\C)[C@@H](O)[C@@H](OC)C(=O)[C@H](C)C[C@H](C)/C=C/C=C/C=C/1C at 100 nM | 73.2 | 66.2 | 68.6 | 33.5 | 53.8 | 91.2 |
| CNC(=O)c1cc(Oc2ccc(NC(=O)Nc3ccc(Cl)c(C(F)(F)F)c3)cc2)ccn1 at 2000 nM | 94.3 | 113 | 77.6 | 58.9 | 73.2 | 55.4 |
| Cc1cn(-c2cc(NC(=O)c3ccc(C)c(Nc4nccc(-c5cccnc5)n4)c3)cc(C(F)(F)F)c2)cn1 at 1000 nM | 89.8 | 86.7 | 76.1 | 51.8 | 77.8 | 48.9 |
| C[C@]1(O)C[C@@H](c2nc(-c3ccc4ccc(-c5ccccc5)nc4c3)c3c(N)nccn32)C1 at 2000 nM | 62.6 | 68.8 | 70.7 | 33.8 | 57.5 | 23.2 |
| CC(C)(C)c1cnc(CSc2cnc(NC(=O)C3CCNCC3)s2)o1 at 50 nM | 57.5 | 107 | 58.6 | 45.8 | 69.3 | 76.1 |
| O=C(Nc1ccccc1)c1cc([N+](=O)[O-])ccc1Cl at 10000 nM | 73.1 | 39.1 | 83.0 | 44.1 | 27.9 | 50.6 |
| Cn1cnc2c(F)c(Nc3ccc(Br)cc3Cl)c(C(=O)NOCCO)cc21 at 75 nM | 64.6 | 69.8 | 67.1 | 36.0 | 65.2 | 80.9 |
| CN(NC(=O)CC(=O)NN(C)C(=S)c1ccccc1)C(=S)c1ccccc1 at 30 nM | 69.5 | 4.5 | 41.8 | 8.3 | 20.8 | 14.0 |
| C[C@]12O[C@H](C[C@]1(O)CO)n1c3ccccc3c3c4c(c5c6ccccc6n2c5c31)CNC4=O at 20 nM | 86.3 | 72.0 | 79.8 | 39.0 | 65.8 | 60.5 |
| c1cc(-c2cnn3cc(-c4ccc(OCCN5CCCCC5)cc4)cnc23)ccn1 at 2000 nM | 47.9 | 61.7 | 54.1 | 63.7 | 40.1 | 50.3 |
| COc1ccc(-c2ccc3c(N4CCOCC4)nc(N4C[C@@H](C)O[C@@H](C)C4)nc3n2)cc1CO at 100 nM | 56.1 | 37.7 | 61.5 | 28.5 | 48.7 | 81.3 |
| CCCCCCCCCCCC1=C(O)C(=O)C=C(O)C1=O at 6000 nM | 76.8 | 67.3 | 55.3 | 40.9 | 53.0 | 68.4 |
| O=C(O)[C@@H]1[O][Sb](=[O])([O][Sb]2(=[O])[O][C@H]([C@H](O)CO)[C@H](O)[C@H](C(=O)O)[O]2)[O][C@H]([C@H](O)CO)[C@@H]1O (some centres not stated) at 10000 nM | 63.0 | 63.3 | 80.8 | 33.0 | 44.0 | 51.9 |
| Cn1nnc2c(C(N)=O)ncn2c1=O at 10000 nM | 86.2 | 81.8 | 71.3 | 47.6 | 39.4 | 54.3 |

The last 3 entries again:

- CCCCCCCCCCCC1=C(O)C(=O)C=C(O)C1=O at 6000 nM | WM451Lu: 76.8; WM3619: 67.3; C32: 55.3; COLO 792: 40.9; COLO 829: 53.0; COLO 800: 68.4
- O=C(O)[C@@H]1[O][Sb](=[O])([O][Sb]2(=[O])[O][C@H]([C@H](O)CO)[C@H](O)[C@H](C(=O)O)[O]2)[O][C@H]([C@H](O)CO)[C@@H]1O (some centres not stated) at 10000 nM | WM451Lu: 63.0; WM3619: 63.3; C32: 80.8; COLO 792: 33.0; COLO 829: 44.0; COLO 800: 51.9
- Cn1nnc2c(C(N)=O)ncn2c1=O at 10000 nM | WM451Lu: 86.2; WM3619: 81.8; C32: 71.3; COLO 792: 47.6; COLO 829: 39.4; COLO 800: 54.3